Measurements taken from EP4289863A9.
Results are given in words; binding and its absence hold for the method and conditions named. A result given as binding can be weak or reduced; the word gives no strength.

Target: monkey IL-36R (monkey)
Assay: flow cytometry on CHO-K1 cells expressing monkey IL-36R

binding: binds
B1: humanized anti-IL-36R antibody 900527 (antibody, V domains shown)
VH: QVQLVQSGAEVKKPGASVKVSCKASGYTFTSSWMHWAKQAPGQGLEWIGEIHPNSAKTNYNQKFQGRVTMTRDTSISTAYMELSRLRSDDTAVYYCARVDYGKPWFAYWGQGTLVTVSS
VL: QIVLTQSPGTLSLSPGERATLSCRASSSVSSSYLHWYQQKPGQAPRLWIYSTSSRATGIPDRFSGSGSGTDFTLTISRLEPEDFATYYCQQFQSSPLTFGQGTKLEIK
